Reference: patent US20210147801A1, “METHODS FOR INCREASING EXPANSION AND IMMUNOSUPPRESSIVE CAPACITY OF A POPULATION OF CD8+CD45RCLOW/- TREGS” (INSERM (INSTITUT NATIONAL DE LA SANTÉ ET DE LA RECHERCHE …, priority 2017, published 2021)
At least one compound was matched to its structure with a doubt left.

Legend:
Format in all cases: cell-based, human
CD8+CD45RClow/- Tregs [1] = experiment: Suppressive activity of drug-expanded Tregs on CD4+CD25- effector T cells stimulated with allogeneic APCs (CFSE); conditions: for suppressive activity of Tregs: Example 3, FIG. 3, Tregs harvested at day 14, 1:1:1 Tregs:Teff:APCs, same drug concentrations, vs no IS drug
Experimental: CD8^+CD45RC^low/− Tregs from fresh or thawed PBMCs were seeded at 3×10^5/ml in RPMI1640 medium supplemented with 10% AB serum, Penicillin (100 U/ml), Streptomycin (0.1 mg/ml), Sodium pyruvate (1 mM), Glutamine (2 mM), Hepes Buffer (1 mM), non-essential amino acids (1×), IL-2 (1000 U/ml) and IL-15 (10 ng/ml), and were stimulated with coated anti-CD3 mAb (1 μg/ml), soluble anti-CD28 mAb (1 μg/ml) and/or allogeneic APCs at 1:4 Tregs: APCs ratio. At day 7, expanded cells were diluted at 1.5×10^5/ml and stimulated again with coated anti-CD3 and soluble anti-CD28 mAbs (1 μg/ml each). […] At day 14, expanded Tregs were washed with PBS before use. Suppressive activity was tested on CD8^+CD45RC^low/− Tregs expanded more than 10 fold in […]. For long-term expansion, CD8^+CD45RC^low/− Tregs and CD4^+CD25^highCD127^low/− Tregs were stimulated again with coated anti-CD3 (1 μg/ml) and soluble anti-CD28 MAbs (1 μg/ml) at days 14 and 21 and IL-2 and IL-15 cytokines were freshly added every 2 days from day 7 to 28. Culture medium 1× cytokines (IL-2 (1000 U/ml) and IL-15 (10 ng/ml)) was added when required.
We tested the effect of immunosuppressive drugs (at concentrations used in the clinic) on CD8^+CD45RC^low/− Tregs survival 7 days following the 14 days expansion (FIG. 1) or on the expansion yield and suppressive function score of CD8^+CD45RC^low/− Tregs during the 14 days expansion (FIG. 3D).
Methods: Fresh blood was taken from 1 healthy volunteer, PBMCs were isolated by Ficoll centrifugation, washed in PBS, adjusted at 2×10^8 PBMC/ml in PBS-FCS-EDTA and were incubated with anti-CD3-PeCy7, anti CD4-PerCPCy5.5 and anti-CD45RC FITC 30′ 4° C. Cells were washed with PBS-FCS-EDTA, filtered on 60 μm tissue, labeled with Dapi and FACS Aria sorted on lymphocyte morphology, exclusion of doublet cells, and DAPI-CD3^+CD4^−CD45RC^low/− expression. […] At days 10 and 12, cytokines were freshly added. Expanded Tregs were harvested at day 14 for suppressive activity assessment. […] After 5 days culture, Teff proliferation was analyzed by CFSE analysis in DAPI^−CD4±CD3^+ T cells.

CD8+CD45RClow/- Tregs [2] = experiment: Tregs associated markers expression at day 21 after 7 d culture in IS-supplemented medium; conditions: Example 4, FIG. 4, methylprednisolone 500 pg/ml, compared to drug free medium
Experimental: Methods: Fresh blood was taken from 1 healthy volunteer, PBMCs were isolated by Ficoll centrifugation, washed in PBS, adjusted at 2×10^8 PBMC/ml in PBS-FCS-EDTA and were incubated with anti-CD3-PeCy7, anti CD4-PerCPCy5.5 and anti-CD45RC FITC 30′ 4° C. Cells were washed with PBS-FCS-EDTA, filtered on 60 μm tissue, labeled with Dapi and FACS Aria sorted on lymphocyte morphology, exclusion of doublet cells, and DAPI-CD3^+CD4^−CD45RC^low/− expression. […] At days 7, Tregs were harvested, counted, washed, and plated at 5×10^5Tregs/well/3 ml in p6 plate previously coated with anti-CD3 (OKT3 clone, 1 μg/ml in PBS, 1 ml/well, 1 h at 37° C. then washed with PBS 3 times), in RPMI1640 medium supplemented with 10% AB serum, Penicillin (100 U/ml), Streptomycin (0.1 mg/ml), Sodium pyruvate (1 mM), Glutamine (2 mM), Hepes Buffer (1 mM), non-essential amino acids (1×), IL-2 (1000 U/ml) and IL-15 (10 ng/ml), anti-CD28 mAbs (clone CD28.2, soluble, 1 μg/ml). […] Tregs were analyzed at day 21 for survival/expansion yield and phenotype.

CD8+CD45RClow/- Tregs [3] = experiment: Tregs associated markers expression after culture with rapamycin; conditions: Example 2, FIG. 2; 7, 14 or 20 days with 50 nM rapamycin vs without
CD8+CD45RClow/- Tregs [4] = experiment: Expansion of Tregs in medium supplemented or not with 50 nM rapamycin (days 7, 14, 20); conditions: Example 2, FIG. 2, 50 nM rapamycin vs no rapamycin
CD8+CD45RClow/- Tregs [5] = experiment: Suppressive activity of rapamycin-expanded Tregs on Teff proliferation (1:1:1 Tregs:Teff:APCs, CFSE); conditions: Example 2, FIG. 2; Tregs harvested at day 14 after culture with 50 nM rapamycin vs without
CD8+CD45RClow/- Tregs [6] = experiment: Expansion of CD8+CD45RClow/- Tregs with anti-CD3/anti-CD28 in medium supplemented with immunosuppressive drugs (14 days)
[7] = summary statement of the description, conditions not given there

SMILES	suppressive activity of Tregs (CD8+CD45RClow/- Tregs [1])	CD154 expression by Tregs (CD8+CD45RClow/- Tregs [2])	cell phenotype (Tregs associated markers) (CD8+CD45RClow/- Tregs [3])	expansion yield (CD8+CD45RClow/- Tregs [4])	suppressive function (CD8+CD45RClow/- Tregs [5])	immunosuppressive capacity of the population (CD8+CD45RClow/- Tregs [1]; [7])	expansion yield (CD8+CD45RClow/- Tregs [6]; Example 3, FIG. 3, cyclosporine A 45 ng/ml, rapamycin 45 ng/ml, methylprednisolone 500 pg/ml, tacrolimus 2 ng/ml, mycophenolate mofetil 1 μg/ml, vs no IS drug)	expansion of CD8+CD45RClow/- Tregs (CD8+CD45RClow/- Tregs [6]; [7])
C[C@H]1C[C@@H]2[C@H]([C@@H](O)C[C@@]3(C)[C@H]2CC[C@]3(O)C(=O)CO)[C@@]2(C)C=CC(=O)C=C12 [methylprednisolone]	improved function	significantly decreased						
CO[C@H]1C[C@@H]2CC[C@@H](C)[C@@](O)(O2)C(=O)C(=O)N2CCCC[C@H]2C(=O)O[C@H]([C@H](C)C[C@@H]2CC[C@@H](O)[C@H](OC)C2)CC(=O)[C@H](C)/C=C(\C)[C@@H](O)[C@@H](OC)C(=O)[C@H](C)C[C@H](C)/C=C/C=C/C=C/1C [rapamycin]	improved		without affecting cell phenotype	improved expansion yield	improved	increase the immunosuppressive capacity	improved	more efficiently expanded
